From PMC13236601

Biological target: LypB (full-length, bacterial two-hybrid fusion) (C. crescentus)
Assay: two-hybrid; bacterial adenylate cyclase two-hybrid (Euromedex kit EUK001); E. coli BTH101 co-transformed with pKT25 and pUT18C fusions; each protein or domain tested in both T25 and T18 vectors; cultures spotted on McConkey agar, 30 °C, 24 h; three independent repeats

- binding: binds
Substance: LypA (full-length, bacterial two-hybrid fusion) (from UniProt A0A0H3IFL3)

These are yes or no findings as the source states them, for the method shown. A result given as binding can be weak or reduced; the word gives no strength.
